# Positions count from the first letter of the chain named. Names and notes keep the numbering of the source. Results are given in words; binding and its absence hold for the method and conditions named. In cells and extracts the contact can be indirect. Some results given as binding are weak or reduced against the parent protein; the word gives no strength. Tags and fused reporters may be left off the sequences shown.
# T1: endogenous wild-type MuSK (muscle specific kinase) (mouse (endogenous in C2C12)) (UniProt Q61006)
# T1 sequence: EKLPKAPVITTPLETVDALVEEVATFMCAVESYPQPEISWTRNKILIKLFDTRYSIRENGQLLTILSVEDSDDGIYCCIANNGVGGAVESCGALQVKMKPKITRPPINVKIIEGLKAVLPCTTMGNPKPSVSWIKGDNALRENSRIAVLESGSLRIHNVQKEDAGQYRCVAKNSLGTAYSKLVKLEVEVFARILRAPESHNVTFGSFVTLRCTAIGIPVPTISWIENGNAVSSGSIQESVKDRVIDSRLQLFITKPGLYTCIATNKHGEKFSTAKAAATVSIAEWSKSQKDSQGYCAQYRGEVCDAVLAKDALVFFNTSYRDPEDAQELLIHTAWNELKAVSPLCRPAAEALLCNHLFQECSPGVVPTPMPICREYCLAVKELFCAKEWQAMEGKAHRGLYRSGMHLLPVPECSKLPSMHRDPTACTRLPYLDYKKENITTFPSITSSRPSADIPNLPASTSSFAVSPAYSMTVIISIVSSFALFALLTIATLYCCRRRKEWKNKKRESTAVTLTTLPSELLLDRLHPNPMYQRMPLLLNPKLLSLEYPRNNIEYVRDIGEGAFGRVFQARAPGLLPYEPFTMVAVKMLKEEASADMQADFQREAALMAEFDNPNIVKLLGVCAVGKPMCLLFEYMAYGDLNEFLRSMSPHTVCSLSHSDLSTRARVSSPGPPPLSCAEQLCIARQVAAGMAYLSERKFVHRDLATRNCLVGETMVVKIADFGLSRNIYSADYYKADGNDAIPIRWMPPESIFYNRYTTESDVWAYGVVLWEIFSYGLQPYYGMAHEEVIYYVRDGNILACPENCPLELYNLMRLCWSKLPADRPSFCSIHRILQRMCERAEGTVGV
# B1: exogenous MuSK wild-type with a N-terminal HA-Tag and a C-terminal Myc-Tag (LXSG/MuSK-WT) (receptor, UniProt Q62838 22-868)
# chain: EKLPKAPVITTPLETVDALVEEVATFMCAVESYPQPEISWTRNKILIKLFDTRYSIRENGQLLTILSVEDSDDGIYCCTANNGVGGAVESCGALQVKMKPKITRPPINVKIIEGLKAVLPCTTMGNPKPSVSWIKGDSALRENSRIAVLESGSLRIHNVQKEDAGQYRCVAKNSLGTAYSKLVKLEVEVFARILRAPESHNVTFGSFVTLRCTAIGMPVPTISWIENGNAVSSGSIQENVKDRVIDSRLQLFITKPGLYTCIATNKHGEKFSTAKAAATVSIAEWSKSQKESKGYCAQYRGEVCDAVLVKDSLVFFNTSYPDPEEAQELLIHTAWNELKAVSPLCRPAAEALLCNHLFQECSPGVLPTPMPICREYCLAVKELFCAKEWLAMEGKTHRGLYRSGMHFLPVPECSKLPSMHQDPTACTRLPYLDYKKENITTFPSITSSKPSVDIPNLPASTSSFAVSPAYSMTVIISIMSCFAVFALLTITTLYCCRRRREWKNKKRESAAVTLTTLPSELLLDRLHPNPMYQRMPLLLNPKLLSLEYPRNNIEYVRDIGEGAFGRVFQARAPGLLPYEPFTMVAVKMLKEEASADMQADFQREAALMAEFDNPNIVKLLGVCAVGKPMCLLFEYMAYGDLNEFLRSMSPHTVCSLSHSDLSTRARVSSPGPPPLSCAEQLCIARQVAAGMAYLSERKFVHRDLATRNCLVGENMVVKIADFGLSRNIYSADYYKADGNDAIPIRWMPPESIFYNRYTTESDVWAYGVVLWEIFSYGLQPYYGMAHEEVIYYVRDGNILACPENCPLELYNLMRLCWSKLPADRPSFCSIHRILQRMCERAEGTVGV
# B2: exogenous MuSK S751A with a N-terminal HA-Tag and a C-terminal Myc-Tag (receptor, UniProt Q62838 22-868)
# chain: B1 chain with S730A
# B3: exogenous MuSK S751D with a N-terminal HA-Tag and a C-terminal Myc-Tag (receptor, UniProt Q62838 22-868)
# chain: B1 chain with S730D
# Target: T1, endogenous wild-type MuSK (muscle specific kinase) (mouse (endogenous in C2C12))
# Assay: co-IP; C2C12 muscle cells expressing endogenous MuSK and exogenous HA-MuSK-Myc; immunoprecipitation with an antibody that recognizes only endogenous MuSK; immunoblot with anti-MuSK and anti-Myc antibodies; quantified
row,binding,Binder
1,binds,B1
2,binds,B2
3,binds,B3

# Source: publication PMC5035991
